This is an account of results in patent US20070264660A1.

Assay [1] has as its target T1, PCNA (clamp, proliferating cell nuclear antigen) from Pyrococcus horikoshii (Pyrococcus horikoshii) (UniProt O58398).
T1 sequence: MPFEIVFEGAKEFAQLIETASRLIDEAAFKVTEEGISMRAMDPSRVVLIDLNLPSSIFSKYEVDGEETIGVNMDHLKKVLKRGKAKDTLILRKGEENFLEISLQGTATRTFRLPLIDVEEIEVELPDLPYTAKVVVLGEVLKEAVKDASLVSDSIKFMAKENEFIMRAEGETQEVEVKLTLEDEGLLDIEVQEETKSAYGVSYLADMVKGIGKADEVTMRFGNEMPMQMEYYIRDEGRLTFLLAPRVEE
Put plainly: pull-down of PCNA through the histidine tag of RFC complex on nickel resin, with or without ATP, read by SDS-PAGE.

The target of assay [2] is T2, small subunit of the clamp loader (RFC) without intein sequence from Pyrococcus horikoshii (Pyrococcus horikoshii) (UniProt O57852).
T2 sequence: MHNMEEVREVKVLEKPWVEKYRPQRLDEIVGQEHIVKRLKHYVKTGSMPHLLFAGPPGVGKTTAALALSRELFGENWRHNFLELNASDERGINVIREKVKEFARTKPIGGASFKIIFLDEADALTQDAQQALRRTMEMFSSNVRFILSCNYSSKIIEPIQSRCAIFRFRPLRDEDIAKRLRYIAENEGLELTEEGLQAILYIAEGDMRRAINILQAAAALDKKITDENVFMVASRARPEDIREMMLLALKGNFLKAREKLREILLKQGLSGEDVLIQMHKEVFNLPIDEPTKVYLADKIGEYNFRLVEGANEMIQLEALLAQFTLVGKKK
In words: co-purification through the histidine tag of the large subunit (heparin, nickel resin, gel filtration), read by SDS-PAGE band intensities. (In gel filtration, larger molecules generally elute earlier.)

These are yes or no findings as the source states them, for the method shown. Binding seen in cells or lysates may run through a third protein. Some binding calls cover weakened binding; strength is not graded here.

B1: RFC complex (clamp loader, replication factor) from Pyrococcus horikoshii (protein, not shown: small tags and cut ends)
chain 1: MPDVPWIEKYRPRKLSEIVNQEQALEKVRAWIESWLHGNPPKKKALLLAGPPGSGKTTTVYALAHEYNFEVIELNASDERTYNKIARYVQAAYTMDIMGKRRKIIFLDEADNIEPSGAPEIAKLIDKARNPIIMAANHYWEVPKEIRDRAELVEYKRLNQRDVISALVRILKREGITVPKEILTEIAKRSSGDLRAAINDLQTIVAGGYEDAKYVLAYRDVEKTVFQSLGMVFSSDNAKRAKLALMNLDMSPDEFLLWVDENIPHMYLKPEEMARAYEAISRADIYLGRAQRTGNYSLWKYAIDMMTAGVAVAGTKKKGFAKFYPPNTLKMLAESKEERSIRDSIIKKIMKEMHMSKLEALETMKILRTIFENNLDLAAHFTVFLELTEKEVEFLAGKEKAGTIWGKTLSIRRRIKETEKIEEKAVEEKVEEEEAEEEEEEERKEEEKPKAEKKKGKQVTLFDFIKKN
chain 2: T2 sequence
For the molecule B1, the binding entry in assay [1] is reported as “binds”.

B2: large subunit of the clamp loader (RFC) from Pyrococcus horikoshii (protein, not shown: small tags and cut ends)
chain: B1 chain 1
For B2, the binding entry in assay [2] is given as “binds”.
